Laboratory results taken from PubChem BioAssay AID192 (DTP/NCI, 2004).
The list does not hold the whole screen: it gathers tests that were run many times, whatever their T/C, doses with no T/C, and many T/C values between a quarter and a half above the control. Other doses and runs of a compound stand elsewhere. T/C gives the treated animals as a percentage of the vehicle group. Some doses have a count of surviving animals in place of a T/C: the source files T/C as zero there, which appears to mark a toxic dose or a test without result, not a measured value. Some survivor counts are full or nearly so, which does not show that the dose was tolerated: survival well below the control is almost never listed, so the zero probably covers shortened survival too. Survivors were counted at the toxicity check, usually on the fifth day, unless a day is given; later deaths do not show. Schedule codes are those of the source, read here as Q, the interval in days (D) or hours (H), X, the number of doses. Some entries hold several experiments; their values stand side by side, smallest first. Where survival is the endpoint, this PubChem deposit counts one and a half times the control or more as active, and values a quarter to a half above the control carry no call in these data; other NCI protocols may use other cut-offs. Some T/C values are followed by the survivors on the day toxicity was checked, most often the fifth; without a count, all were alive then. Numbered stars: 1 amine (or outer) side, 2 acyl side, 3 side chain; on linkers, the order of the positions; unused ones are H or OH. Bridge positions count the residues as written; N and C are the ends. Square brackets hold non-standard residues; d marks the D form. Peptide text beside a SMILES is read from it. I, II: the chains in the order shown. Actinocin(9to1) = Cc1c2oc3c(C)ccc(C(=O)[*:1])c3nc-2c(C(=O)[*:2])c(N)c1=O; NMeV = CN[CH](C(=O)O)C(C)C; Sar = CNCC(=O)O

Test system: BDF1 mice, B16 melanoma ip, median survival T/C
Test: NCI In Vivo Anticancer Drug Screen. Data for tumor model B16 Melanoma (intraperitoneal) in B6D2F1 (BDF1) mice
Settings: T/C endpoint: median survival time, schedule: Q01DX009 (ip), higher T/C = longer survival
Method in brief: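 Tumor-bearing mice received test compound or vehicle. Survival or tumor size was then measured in both groups. The treated-group figure was divided by the control-group figure.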

[1] = dose: 100.0 mg/kg/injection, vehicle: saline
[2] = dose: 200.0 mg/kg/injection, vehicle: saline
[3] = dose: 400.0 mg/kg/injection, vehicle: saline
[4] = dose: 0.25 mg/kg/injection, vehicle: saline

CC(C)([NH-])CO.CC(C)([NH-])CO.[Cl][Cd][Cl]
survivor count (dose: 2.5 mg/kg/injection, vehicle: saline): 10 of 10 | survivor count (dose: 5.0 mg/kg/injection, vehicle: saline): 10 of 10 | survivor count (dose: 10.0 mg/kg/injection, vehicle: saline): 9 of 10

COC(=O)C1(N)CCCC1
T/C (dose: 25.0 mg/kg/injection, vehicle: saline): 129 % of control | T/C (dose: 50.0 mg/kg/injection, vehicle: saline): 127, 128 [9 of 10 alive], 134, 140 % of control | T/C [1]: 126 % of control | survivor count [1]: 10 of 10 | survivor count [2]: 10 of 10 | survivor count [3]: 10 of 10

Cc1c2oc3c(C)ccc(C(=O)NC4C(=O)NC(C(C)C)C(=O)N5CCCC5C(=O)N(C)CC(=O)N(C)C(C(C)C)C(=O)OC4C)c3nc-2c(C(=O)NC2C(=O)NC(C(C)C)C(=O)N3CCCC3C(=O)N(C)CC(=O)N(C)C(C(C)C)C(=O)OC2C)c(N)c1=O (stereo not given) (I: TVP[Sar][NMeV] / II: TVP[Sar][NMeV]; ester I:1-I:C, II:1-II:C; linker I:N-II:N via Actinocin(9to1); configuration not given here)
T/C (dose: 0.03 mg/kg/injection, vehicle: saline): 126 and 128 % of control | T/C (dose: 0.06 mg/kg/injection, vehicle: saline): 142 % of control | T/C [4]: 101, 167, 188 % of control | survivor count [4]: 10 of 10 | survivor count (dose: 0.5 mg/kg/injection, vehicle: saline): 9 of 10 and 10 of 10 | survivor count (dose: 1.0 mg/kg/injection, vehicle: saline): 5 of 10 and 10 of 10 | survivor count (dose: 2.0 mg/kg/injection, vehicle: saline): 1 of 10 and 3 of 10 | survivor count (dose: 4.0 mg/kg/injection, vehicle: saline): 0 of 10

O=C(O)C1OC1C(=O)O (stereo not given)
T/C (dose: 150.0 mg/kg/injection, vehicle: saline): 127 % of control

Cc1c[n+]2c3ccccc3c3ccccc3c2s1
survivor count (dose: 40.0 mg/kg/injection, vehicle: saline): 3 of 6 | survivor count (dose: 80.0 mg/kg/injection, vehicle: saline): 3 of 6

CCCCCCCCCCCCO[P+](=O)OCCCCCCCCCCCC
survivor count [2]: 10 of 10 | survivor count [3]: 4 of 10 | survivor count (dose: 600.0 mg/kg/injection, vehicle: saline): 2 of 10 | survivor count (dose: 800.0 mg/kg/injection, vehicle: saline): 0 of 10

NC(=O)c1ccc[n+](Cc2c(Cl)cccc2Cl)c1
T/C (dose: 6.0 mg/kg/injection, vehicle: saline): 127 % of control

CS(=O)(=O)OCCN(CCOS(C)(=O)=O)c1ccc(C=O)cc1
T/C (dose: 3.12 mg/kg/injection, vehicle: saline with Tween-80): 143 % of control | survivor count (dose: 12.5 mg/kg/injection, vehicle: saline with Tween-80): 0 of 10 | survivor count (dose: 25.0 mg/kg/injection, vehicle: saline with Tween-80): 10 of 10 | survivor count (dose: 50.0 mg/kg/injection, vehicle: saline with Tween-80): 10 of 10 | survivor count (dose: 100.0 mg/kg/injection, vehicle: saline with Tween-80): 3 of 10
